These are yes or no findings as the source states them, for the method shown. A result given as binding can be weak or reduced; the word gives no strength. For some assays here: In cells and extracts the contact can be indirect. For some assays here: Where a sequence is shown, tags or fusion partners need not be part of it.
Assays:
[1] = target: ROP10 in pGBT9.BS (pGBT ROP10); experiment: two-hybrid
[2] = target: ROP6 in pGBT9.BS (pGBT ROP6); experiment: two-hybrid
YN-ROP10 = experiment: split reporter
YN-ROP6 = experiment: split reporter
YN-rop11^CA = YN-rop11^CA (UniProt O82481); experiment: split reporter

Sequences of proteins named here, by UniProt entry; tags and fusion partners are left off. A change or cut given only in a name is not applied to a line headed by its entry.
UniProt O82481: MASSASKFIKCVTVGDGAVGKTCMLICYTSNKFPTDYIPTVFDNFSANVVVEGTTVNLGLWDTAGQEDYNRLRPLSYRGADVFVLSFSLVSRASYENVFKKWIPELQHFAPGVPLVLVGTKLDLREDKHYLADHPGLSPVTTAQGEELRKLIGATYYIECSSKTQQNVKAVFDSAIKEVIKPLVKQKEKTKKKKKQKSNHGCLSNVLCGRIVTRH

binding [1]	binding [2]	binding (YN-ROP10)	binding (YN-ROP6)	binding (YN-rop11^CA)	Binder
binds	binds	–	–	–	ICR2 in pGAD GH (pGAD-ICR2) (protein, UniProt Q9ZQC5 1-583) MQTPKPRPGSLEVPQKKSPASTPKTARKLKTSESDPVSSPNTKIRTPKTQSPKVVADRRSPRTPVNEIQKKRTGKTPELASQISQLQEELKKAKEQLSASEALKKEAQDQAEETKQQLMEINASEDSRIDELRKLSQERDKAWQSELEAMQRQHAMDSAALSSTMNEVQKLKAQLSESENVENLRMELNETLSLVEKLRGELFDAKEGEAQAHEIVSGTEKQLEIANLTLEMLRSDGMKMSEACNSLTTELEQSKSEVRSLEQLVRQLEEEDEARGNANGDSSSVEELKEEINVARQEISQLKSAVEVTERRYHEEYIQSTLQIRTAYEQVDEVKSGYAQREAELGEELKKTKAERDSLHERLMDKEAKLRILVDENEILNSKIKEKEEVYLNLENSLNQNEPEDTGELKKLESDVMELRANLMDKEMELQSVMSQYESLRSEMETMQSEKNKAIDEALAKLGSLTEEADKSGKRAENATEQLGAAQVTNTELEAELRRLKVQCDQWRKAAEAAATMLSGGNNNNNSNGKYVERTGSLESPLRRRNVNMSPYMGETDDELSSPKKKNGSMLKKIGVLLKKSQK
–	–	binds	binds	binds	ICR2 fused at its carboxy terminus to the C-terminal half of YFP (ICR2-YC) (protein, UniProt Q9ZQC5 56-583) ADRRSPRTPVNEIQKKRTGKTPELASQISQLQEELKKAKEQLSASEALKKEAQDQAEETKQQLMEINASEDSRIDELRKLSQERDKAWQSELEAMQRQHAMDSAALSSTMNEVQKLKAQLSESENVENLRMELNETLSLVEKLRGELFDAKEGEAQAHEIVSGTEKQLEIANLTLEMLRSDGMKMSEACNSLTTELEQSKSEVRSLEQLVRQLEEEDEARGNANGDSSSVEELKEEINVARQEISQLKSAVEVTERRYHEEYIQSTLQIRTAYEQVDEVKSGYAQREAELGEELKKTKAERDSLHERLMDKEAKLRILVDENEILNSKIKEKEEVYLNLENSLNQNEPEDTGELKKLESDVMELRANLMDKEMELQSVMSQYESLRSEMETMQSEKNKAIDEALAKLGSLTEEADKSGKRAENATEQLGAAQVTNTELEAELRRLKVQCDQWRKAAEAAATMLSGGNNNNNSNGKYVERTGSLESPLRRRNVNMSPYMGETDDELSSPKKKNGSMLKKIGVLLKKSQK
